Results as given in patent publication US10869873B2 (priority 2011, dated 2020).
At least one structure is not confirmed: it was looked up by name or label, or the drawing left a doubt.

Tested on: HIV-1 NL4-3
Test: HIV replication assay in TZM-b1 cells, luciferase
Type: cell-based
Settings: HIV-1 infected TZM-b1 cells treated daily with serial dilutions for 4 days

## CCN(CC)CCNC(=O)c1c(C)[nH]c(/C=C2\C(=O)Nc3ccc(F)cc32)c1C [sunitinib]
  antiviral effect on HIV replication: significant dose response antiviral effect
